Taken from: PubChem BioAssay AID1259308 (NCATS, 2017)
Assay: 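Genes whose loss raises luciferase production in HEK293 cells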 (primary screen). System: human HEK293 embryonic kidney cells stably expressing firefly luciferase (HEK-CMV-Luc2-Hygro). Reagent: single siRNA against human genes, 0.8 pmol siRNA per well. Duration: 72 h. Measurement: 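Luciferase light (ONE-Glo) measured on one replicate plate set and viability (CellTiter-Glo) on the other, scaled to a negative control siRNA, with robust z-scores and luciferase per cell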. Reading the numbers: total luciferase, z-score: higher = more reporter protein produced. Active means: 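An siRNA counts as active if its total luciferase robust z-score exceeds 3; genes with two or more such siRNAs out of three were retested with fresh siRNAs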. Meaning of the calls: active = raised luciferase; inactive = no rise.
In all, the deposit lists about 59,000 reagents; this is an unselected part. Of all reagents, about 1,510 (2.6%) got an active call. 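Calls use total luciferase alone and ignore viability, so some active siRNAs may act by altering cell number.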 Reagents against one gene are numbered here. Not all columns of the deposit are shown.

The opening 2 entries, to show the layout:
NUP88 #1
- total luciferase, z-score: 1.09
- call: inactive

NUP88 #2
- total luciferase, z-score: -0.678
- call: inactive

Results, repeating the preview:
NUP88 #1
- total luciferase, z-score: 1.09
- call: inactive

NUP88 #2
- total luciferase, z-score: -0.678
- call: inactive

NUP88 #3
- total luciferase, z-score: 0.226
- call: inactive

AKR1C2 #1
- total luciferase, z-score: 0.382
- call: inactive

AKR1C2 #2
- total luciferase, z-score: -0.0765
- call: inactive

AKR1C2 #3
- total luciferase, z-score: -0.144
- call: inactive

CACNG4 #1
- total luciferase, z-score: -0.293
- call: inactive

CACNG4 #2
- total luciferase, z-score: -0.535
- call: inactive

CACNG4 #3
- total luciferase, z-score: -0.672
- call: inactive

FSTL4 #1
- total luciferase, z-score: 0.914
- call: inactive

FSTL4 #2
- total luciferase, z-score: 1.04
- call: inactive

FSTL4 #3
- total luciferase, z-score: -0.257
- call: inactive

SH2B3 #1
- total luciferase, z-score: -1.51
- call: inactive

SH2B3 #2
- total luciferase, z-score: 0.903
- call: inactive

SH2B3 #3
- total luciferase, z-score: 2.32
- call: inactive

ZIM3 #1
- total luciferase, z-score: -1.12
- call: inactive

ZIM3 #2
- total luciferase, z-score: -0.525
- call: inactive

ZIM3 #3
- total luciferase, z-score: -1.05
- call: inactive

ADORA3 #1
- total luciferase, z-score: 0.908
- call: inactive

ADORA3 #2
- total luciferase, z-score: 3.88
- call: active

ADORA3 #3
- total luciferase, z-score: -1.28
- call: inactive
